Data published in patent US11638424B2, “Mosquito attractant formulations and uses thereof” (priority 2017, dated 2023).

System: RBCs
Experiment: Volatile collection (SPME) and GC-MS analysis of RBC headspace
Assay type: cell-based, Human
Experimental: RBCs (1 ml) were transferred to 4 ml glass vials closed with auto-sampler screw caps, and equilibrated in a thermostat at 38° C. for 15 min. Then, 2.5 μl of HMBPP or Nanopure water were added to the RBCs samples (final concentration: 10 μM HMBPP per sample). Volatiles were collected from the headspace using solid phase micro-extraction (SPME; Supelco, Bellmonte, Pa., USA) (M. J. Yang, el al., J. Chem. Educ., 74, 1130-1132 (1997) and A. K. Borg-Karlson and R. Mozuraitis, Naturforsch., C. 51, 599-602 (1996)). […] Electron ionisation mass spectra were determined at 70 eV with the ion source kept at 230° C. and mass spectra were obtained at mass to charge ratio (m/z) 29-400. […] A similar protocol was used for the quantification of CO2, with the mass spectral data and GC retention times being compared with emission from frozen CO2. The relative amounts of CO2 in arbitrary units were determined from the areas of the respective chromatogram peaks using single ion display mode at m/z 44±0.5 Da. The amounts of identified compounds were quantified by the use of extracted ion chromatograms, since they are very minute. […] The estimations were based on the very same quantifications given in ‘arbitrary area units’. […]

Row | SMILES | proportion of compound identified in the headspace for hRBCs, % by weight (of the combined compounds) [% by weight]
1 | CC1=CCC2CC1C2(C)C (stereo not drawn) [α-pinene] | 7
2 | C=C1CCC2CC1C2(C)C (stereo not drawn) [β-pinene] | 5
